Laboratory results: PMC7865074
These are yes or no findings as the source states them, for the method shown.

B1: PDZ domain-containing protein GIPC3, PDZ domain (holdup construct) (domain or fragment, UniProt Q8TF64 112-192)
chain: EVEVTKTEDALGLTITDNGAGYAFIKRIKEGSIINRIEAVCVGDSIEAINDHSIVGCRHYEVAKMLRELPKSQPFTLRLVQ
B2: MAGUK p55 subfamily member 5, PDZ domain (holdup construct) (domain or fragment, UniProt Q8N3R9 256-336)
chain: IVRIEKARDIPLGATVRNEMDSVIISRIVKGGAAEKSGLLHEGDEVLEINGIEIRGKDVNEVFDLLSDMHGTLTFVLIPSQ
B3: PDZ and LIM domain protein 1, PDZ domain (holdup construct) (domain or fragment, UniProt O00151 3-85)
chain: TQQIDLQGPGPWGFRLVGGKDFEQPLAISRVTPGSKAALANLCIGDVITAIDGENTSNMTHLEAQNRIKGCTDNLTLTVARSE
B4: PDZ domain-containing protein 4, PDZ domain (holdup construct) (domain or fragment, UniProt Q76G19 130-214)
chain: EVELYKSSHRDKLGLMVCYRTDDEEDLGIYVGEVNPNSIAAKDGRIREGDRIIQINGVDVQNREEAVAILSQEENTNISLLVARP
B5: T-lymphoma invasion and metastasis-inducing protein 2, PDZ domain (holdup construct) (domain or fragment, UniProt Q8IVF5 890-976)
chain: DVQLTKTGSVCDFGFAVTAQVDERQHLSRIFISDVLPDGLAYGEGLRKGNEIMTLNGEAVSDLDLKQMEALFSEKSVGLTLIARPPD
B6: Regulating synaptic membrane exocytosis protein 2, PDZ domain (holdup construct) (domain or fragment, UniProt Q9UQ26 668-754)
chain: DGSVPRDSGAMLGLKVVGGKMTESGRLCAFITKVKKGSLADTVGHLRPGDEVLEWNGRLLQGATFEEVYNIILESKPEPQVELVVSR
B7: Protein piccolo, PDZ domain (holdup construct) (domain or fragment, UniProt Q9Y6V0 4496-4590)
chain: RIKITRDSKDHTVSGNGLGIRIVGGKEIPGHSGEIGAYIAKILPGGSAEQTGKLMEGMQVLEWNGIPLTSKTYEEVQSIISQQSGEAEICVRLDL
B8: 26S proteasome non-ATPase regulatory subunit 9, PDZ domain (holdup construct) (domain or fragment, UniProt O00233 108-195)
chain: QARDMAEAHKEAMSRKLGQSESQGPPRAFAKVNSISPGSPASIAGLQVDDEIVEFGSVNTQNFQSLHNIGSVVQHSEGKPLNVTVIRR

Each binder was assayed against biotinylated WNV NS5 PBM peptide (West Nile virus) (assay: condition: BI < 0.15 (threshold for a significant interaction 0.2); holdup assay (automated high-throughput chromatography); biotinylated NS5 PBM peptide as bait against 259 human PDZ domains expressed in E. coli; read-out binding intensity (BI), mean of replicates; BI threshold 0.2 for a significant interaction).
B1 was tested, and the binding was “no binding”. For B2, the binding was “no binding”. For B3, the binding was “no binding”. With B4 the binding was “no binding”. B5 was tested, and the binding was “no binding”. B6 was tested, and the binding was “no binding”. B7 was tested, and the binding was “no binding”. In the case of B8, the binding is reported as “no binding”.
